Assay results from article PMC3057987 (PLoS ONE, 2011).
Results are given in words; binding and its absence hold for the method and conditions named. In cells and extracts the contact can be indirect. Some results given as binding are weak or reduced against the parent protein; the word gives no strength. Where a sequence is shown, tags or fusion partners need not be part of it. Values belong to the molecule of their own block, whether it stands above or below them.

Protein sequences, listed by entry. Tags and fused reporters are not part of them. Lines headed by an entry give the natural chain unless they say otherwise; changes in a name come on top. Chains listed by the source or under a name are the forms on record and can include a tag or linker. Residues count along the entry.
UniProt Q00987: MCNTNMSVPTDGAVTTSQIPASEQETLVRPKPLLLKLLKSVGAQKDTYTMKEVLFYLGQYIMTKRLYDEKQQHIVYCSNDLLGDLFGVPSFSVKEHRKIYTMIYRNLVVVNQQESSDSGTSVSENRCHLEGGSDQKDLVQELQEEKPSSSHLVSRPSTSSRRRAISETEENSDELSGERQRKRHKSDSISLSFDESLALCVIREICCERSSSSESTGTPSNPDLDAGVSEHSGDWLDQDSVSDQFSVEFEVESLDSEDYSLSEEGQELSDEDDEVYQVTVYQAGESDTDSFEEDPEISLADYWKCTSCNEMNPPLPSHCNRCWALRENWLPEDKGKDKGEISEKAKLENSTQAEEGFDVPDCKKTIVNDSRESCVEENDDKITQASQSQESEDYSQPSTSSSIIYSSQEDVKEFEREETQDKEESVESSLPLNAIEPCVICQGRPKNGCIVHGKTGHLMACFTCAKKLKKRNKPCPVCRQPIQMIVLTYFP
MDM2_(7–300) fused to the TAP tag (human (A549 cell-derived cDNA library)): residues 7-300 of Q00987

Columns and labels:
[1] = target: T1, MIP fused to a FLAG-tagged thioredoxin scaffold protein (Ad-MIP); test: co-IP; HCT116-p53+/+ cells infected with 400 MOI of Ad-3A, DI or MIP and 8 MOI of Ad-Cre, 48 h; immunoprecipitation with anti-FLAG antibody; western blot with anti-MDM2 or anti-FLAG
T1 sequence: PRFWEYWLRLME

[2] = target: T2, 3A fused to a FLAG-tagged thioredoxin scaffold protein (Ad-3A); test: as above
T2 sequence: LTAEHYAAQATS

[3] = target: T3, GFP-MIP, expressed in HCT116-p53+/+ cells; test: co-IP; HCT116-p53+/+ cells transfected with GFP-fusion plasmids, 24 h; lysis in TNE buffer (10 mM Tris-HCl pH 7.8, 150 mM NaCl, 1 mM EDTA, 1% NP-40); anti-GFP agarose 2 h at 4°C; western blot with anti-MDM2
T3 sequence: PRFWEYWLRLME

[4] = target: MDM2_(7–300) fused to the TAP tag (human (A549 cell-derived cDNA library)) (UniProt Q00987); test: pull-down; in vitro translated GFP-tagged peptide incubated with TAP-tagged MDM2 immobilized on IgG beads, 1 h at 4°C; washed three times with IPP150 (10 mM Tris-HCl pH 8.0, 150 mM NaCl, 0.1% NP-40); GFP fluorescence on SDS-PAGE gel; only the target purified

binding [1]: binds
binding [2]: no binding
binding [3]: binds
Molecule: MDM2, endogenous in HCT116-p53+/+ cells (from UniProt Q00987 1-491)

binding [4]: binds
B1: MIP (MDM2 Inhibitory Peptide), synthetic peptide (peptide)
peptide: PRFWEYWLRLME
notes: 12-mer selected by mRNA display from a partially randomized library; also called X12-1; source: synthetic peptide
